The assay addresses GST-Syt-7α fusion protein (full-length Syt-7α) (UniProt Q9R0N7). The assay can be described thus: pull-down; GST-Syt-7α immobilised on glutathione-Sepharose beads, incubated with purified His-synprint proteins 1 h at 4°C; TBS-Ca2+ buffering system with 0.1% Triton X-100, free Ca2+ 10 μM to 1 mM; eluted with 15 mM reduced glutathione; anti-His immunoblot; both purified. For orientation: Immunoblotting shows a protein as a band on a membrane.

Sequences of proteins named here, by UniProt entry; tags and fusion partners are left off. A change or cut given only in a name is not applied to a line headed by its entry.
UniProt Q9R0N7: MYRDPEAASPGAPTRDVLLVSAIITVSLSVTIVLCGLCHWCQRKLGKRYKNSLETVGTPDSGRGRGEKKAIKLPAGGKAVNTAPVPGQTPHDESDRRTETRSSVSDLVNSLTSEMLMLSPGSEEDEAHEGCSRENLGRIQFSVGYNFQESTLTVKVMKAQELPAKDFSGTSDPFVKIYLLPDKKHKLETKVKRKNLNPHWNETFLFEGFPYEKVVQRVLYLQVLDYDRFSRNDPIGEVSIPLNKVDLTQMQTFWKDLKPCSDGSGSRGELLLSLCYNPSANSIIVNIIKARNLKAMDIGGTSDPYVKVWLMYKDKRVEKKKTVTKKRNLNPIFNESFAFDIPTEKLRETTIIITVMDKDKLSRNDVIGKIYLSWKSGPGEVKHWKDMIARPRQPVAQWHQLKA
UniProt P15381: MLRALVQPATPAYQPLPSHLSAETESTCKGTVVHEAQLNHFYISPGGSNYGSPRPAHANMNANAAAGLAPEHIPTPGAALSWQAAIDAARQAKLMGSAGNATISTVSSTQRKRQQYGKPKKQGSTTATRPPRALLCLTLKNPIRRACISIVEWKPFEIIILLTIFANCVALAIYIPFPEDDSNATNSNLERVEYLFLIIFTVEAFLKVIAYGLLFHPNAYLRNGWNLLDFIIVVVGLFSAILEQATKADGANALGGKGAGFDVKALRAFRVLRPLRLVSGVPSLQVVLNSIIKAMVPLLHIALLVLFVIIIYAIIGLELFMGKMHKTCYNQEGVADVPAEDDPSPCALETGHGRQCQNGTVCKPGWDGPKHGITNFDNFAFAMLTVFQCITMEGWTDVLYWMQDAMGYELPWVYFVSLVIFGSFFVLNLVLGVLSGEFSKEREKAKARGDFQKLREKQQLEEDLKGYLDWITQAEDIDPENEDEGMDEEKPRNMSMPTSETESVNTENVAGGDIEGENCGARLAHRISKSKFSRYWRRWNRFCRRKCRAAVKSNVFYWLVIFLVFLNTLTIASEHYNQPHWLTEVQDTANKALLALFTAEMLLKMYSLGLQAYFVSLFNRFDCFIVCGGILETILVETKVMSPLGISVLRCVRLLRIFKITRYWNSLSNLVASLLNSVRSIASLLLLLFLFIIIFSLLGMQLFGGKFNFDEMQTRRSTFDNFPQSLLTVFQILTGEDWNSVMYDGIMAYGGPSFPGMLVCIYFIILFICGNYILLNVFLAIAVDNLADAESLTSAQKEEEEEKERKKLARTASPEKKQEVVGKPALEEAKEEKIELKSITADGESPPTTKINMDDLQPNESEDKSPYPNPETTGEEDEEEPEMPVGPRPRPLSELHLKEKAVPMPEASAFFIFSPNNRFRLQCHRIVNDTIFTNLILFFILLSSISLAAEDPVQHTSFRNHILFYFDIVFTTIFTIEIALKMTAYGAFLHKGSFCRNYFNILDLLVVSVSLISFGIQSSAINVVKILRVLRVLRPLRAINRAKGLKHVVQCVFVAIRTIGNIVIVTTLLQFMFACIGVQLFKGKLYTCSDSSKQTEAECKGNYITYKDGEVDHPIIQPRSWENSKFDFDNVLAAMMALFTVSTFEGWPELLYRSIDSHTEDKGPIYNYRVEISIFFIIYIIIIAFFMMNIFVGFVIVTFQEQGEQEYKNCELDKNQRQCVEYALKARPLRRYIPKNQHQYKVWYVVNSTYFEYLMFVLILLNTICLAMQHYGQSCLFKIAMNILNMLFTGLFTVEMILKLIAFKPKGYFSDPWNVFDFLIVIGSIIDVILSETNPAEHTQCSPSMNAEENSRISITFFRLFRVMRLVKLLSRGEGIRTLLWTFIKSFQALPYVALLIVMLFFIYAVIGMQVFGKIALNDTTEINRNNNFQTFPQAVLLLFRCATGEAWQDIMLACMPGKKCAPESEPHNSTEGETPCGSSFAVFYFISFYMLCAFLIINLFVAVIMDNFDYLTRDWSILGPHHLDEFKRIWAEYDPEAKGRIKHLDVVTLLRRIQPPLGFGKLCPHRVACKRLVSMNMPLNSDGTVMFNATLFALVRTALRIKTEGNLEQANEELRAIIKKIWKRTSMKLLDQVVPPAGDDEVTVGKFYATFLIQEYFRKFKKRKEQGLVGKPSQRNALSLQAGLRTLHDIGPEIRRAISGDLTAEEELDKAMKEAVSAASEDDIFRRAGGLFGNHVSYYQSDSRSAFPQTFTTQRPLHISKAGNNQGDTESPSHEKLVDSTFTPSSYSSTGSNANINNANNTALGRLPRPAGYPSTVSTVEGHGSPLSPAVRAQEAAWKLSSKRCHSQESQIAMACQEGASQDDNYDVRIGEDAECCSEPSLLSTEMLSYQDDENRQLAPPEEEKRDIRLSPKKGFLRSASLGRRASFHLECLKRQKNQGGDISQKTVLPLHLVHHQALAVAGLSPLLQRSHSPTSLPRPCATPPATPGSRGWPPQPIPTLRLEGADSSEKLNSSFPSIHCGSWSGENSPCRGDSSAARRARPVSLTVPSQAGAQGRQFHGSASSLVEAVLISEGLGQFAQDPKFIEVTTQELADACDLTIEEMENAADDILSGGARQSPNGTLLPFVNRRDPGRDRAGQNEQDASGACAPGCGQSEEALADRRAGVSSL

These are yes or no findings as the source states them, for the method shown.

For the substance “His-Cav1.2 synprint (680–800) (from UniProt P15381) (domain or fragment)”, the binding entry is recorded as “no binding”.

Values taken from publication PMC9113918.
